Measurements from paper doi:10.1101/2025.06.08.658491.
Results are given in words; binding and its absence hold for the method and conditions named. In cells and extracts the contact can be indirect. Some entries that bind do so weakly or less than the wild type. For some assays here: Tags and fused reporters may be left off the sequences shown.

By UniProt entry, the sequences of proteins in these tests, tags left out.
UniProt Q38HM4: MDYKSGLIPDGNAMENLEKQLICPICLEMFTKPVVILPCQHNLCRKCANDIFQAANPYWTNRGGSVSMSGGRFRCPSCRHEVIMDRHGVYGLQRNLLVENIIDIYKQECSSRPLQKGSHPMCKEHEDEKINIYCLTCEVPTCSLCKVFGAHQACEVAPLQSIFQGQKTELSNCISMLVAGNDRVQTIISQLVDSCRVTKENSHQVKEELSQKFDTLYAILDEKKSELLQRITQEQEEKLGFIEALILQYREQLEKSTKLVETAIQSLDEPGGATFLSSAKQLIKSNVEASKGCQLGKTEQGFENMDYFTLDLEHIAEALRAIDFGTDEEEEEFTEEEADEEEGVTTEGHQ
UniProt Q969Q1: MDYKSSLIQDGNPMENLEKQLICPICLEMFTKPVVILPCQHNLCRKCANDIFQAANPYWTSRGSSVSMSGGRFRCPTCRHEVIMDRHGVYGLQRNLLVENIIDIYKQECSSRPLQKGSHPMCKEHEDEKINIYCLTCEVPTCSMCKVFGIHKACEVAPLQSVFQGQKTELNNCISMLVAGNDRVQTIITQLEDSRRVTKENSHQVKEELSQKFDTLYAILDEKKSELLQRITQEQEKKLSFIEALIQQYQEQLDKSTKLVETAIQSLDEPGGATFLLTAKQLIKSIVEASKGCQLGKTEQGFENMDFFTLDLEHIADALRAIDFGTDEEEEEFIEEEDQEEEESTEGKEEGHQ

Tests used:
[1] = biological target: GFP-MuRF1 knock-in (endogenous MuRF1 with N-terminal GFP) in C2C12 myotubes (mouse (endogenous in C2C12)) (UniProt Q38HM4); assay: co-IP
[2] = biological target: GFP-MuRF1, transiently expressed in HEK293 cells (UniProt Q969Q1); assay: co-IP

Binder	binding [1]	binding [2]
tripartite motif-containing protein 72 (TRIM72), endogenous in C2C12 myotubes (protein, UniProt Q1XH17 1-477) MSAAPGLLRQELSCPLCLQLFDAPVTAECGHSFCRACLIRVAGEPAADGTVACPCCQAPTRPQALSTNLQLSRLVEGLAQVPQGHCEEHLDPLSIYCEQDRTLVCGVCASLGSHRGHRLLPAAEAQARLKTQLPQQKMQLQEACMRKEKTVAVLEHQLVEVEETVRQFRGAVGEQLGKMRMFLAALESSLDREAERVRGDAGVALRRELSSLNSYLEQLRQMEKVLEEVADKPQTEFLMKFCLVTSRLQKILSESPPPARLDIQLPVISDDFKFQVWKKMFRALMPALEELTFDPSSAHPSLVVSSSGRRVECSDQKAPPAGEDTRQFDKAVAVVAQQLLSQGEHYWEVEVGDKPRWALGVMAADASRRGRLHAVPSQGLWLLGLRDGKILEAHVEAKEPRALRTPERPPARIGLYLSFADGVLAFYDASNPDVLTPIFSFHERLPGPVYPIFDVCWHDKGKNAQPLLLVGPEQEQA	binds	–
FLAG-TRIM72, transiently expressed in HEK293 cells (protein, UniProt Q6ZMU5 1-477) MSAAPGLLHQELSCPLCLQLFDAPVTAECGHSFCRACLGRVAGEPAADGTVLCPCCQAPTRPQALSTNLQLARLVEGLAQVPQGHCEEHLDPLSIYCEQDRALVCGVCASLGSHRGHRLLPAAEAHARLKTQLPQQKLQLQEACMRKEKSVAVLEHQLVEVEETVRQFRGAVGEQLGKMRVFLAALEGSLDREAERVRGEAGVALRRELGSLNSYLEQLRQMEKVLEEVADKPQTEFLMKYCLVTSRLQKILAESPPPARLDIQLPIISDDFKFQVWRKMFRALMPALEELTFDPSSAHPSLVVSSSGRRVECSEQKAPPAGEDPRQFDKAVAVVAHQQLSEGEHYWEVDVGDKPRWALGVIAAEAPRRGRLHAVPSQGLWLLGLREGKILEAHVEAKEPRALRSPERRPTRIGLYLSFGDGVLSFYDASDADALVPLFAFHERLPRPVYPFFDVCWHDKGKNAQPLLLVGPEGAEA	–	binds
